Reference: the supplement of paper PMC12067093, “Discovery and optimisation of a covalent ligand for TRIM25 and its application to targeted protein ubiquitination” (Chemical Science, 2025)
This is one part of the list.

Chains of the proteins cited; added tags and fusions are not shown. Lines headed by an entry give the natural chain unless they say otherwise; changes in a name come on top.
UniProt Q32P28: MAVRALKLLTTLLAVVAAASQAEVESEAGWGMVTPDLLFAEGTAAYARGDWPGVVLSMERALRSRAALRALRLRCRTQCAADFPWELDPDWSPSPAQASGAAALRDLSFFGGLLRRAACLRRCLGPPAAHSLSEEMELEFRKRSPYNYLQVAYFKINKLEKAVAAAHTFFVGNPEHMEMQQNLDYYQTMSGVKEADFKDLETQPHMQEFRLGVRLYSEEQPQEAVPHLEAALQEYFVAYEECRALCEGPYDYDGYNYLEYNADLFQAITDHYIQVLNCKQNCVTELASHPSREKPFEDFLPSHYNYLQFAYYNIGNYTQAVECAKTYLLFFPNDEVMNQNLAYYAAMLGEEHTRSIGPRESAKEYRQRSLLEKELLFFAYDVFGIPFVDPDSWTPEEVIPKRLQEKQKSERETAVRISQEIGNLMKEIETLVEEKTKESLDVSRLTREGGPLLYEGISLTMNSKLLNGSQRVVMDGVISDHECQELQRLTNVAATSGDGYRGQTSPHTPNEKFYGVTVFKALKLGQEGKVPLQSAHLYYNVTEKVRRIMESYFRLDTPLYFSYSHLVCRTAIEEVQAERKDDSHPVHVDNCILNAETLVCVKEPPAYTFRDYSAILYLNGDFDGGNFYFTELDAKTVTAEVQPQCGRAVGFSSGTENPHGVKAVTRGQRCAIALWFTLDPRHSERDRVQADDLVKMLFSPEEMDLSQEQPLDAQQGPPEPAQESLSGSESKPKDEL
UniProt P09874, whole entry, looked up: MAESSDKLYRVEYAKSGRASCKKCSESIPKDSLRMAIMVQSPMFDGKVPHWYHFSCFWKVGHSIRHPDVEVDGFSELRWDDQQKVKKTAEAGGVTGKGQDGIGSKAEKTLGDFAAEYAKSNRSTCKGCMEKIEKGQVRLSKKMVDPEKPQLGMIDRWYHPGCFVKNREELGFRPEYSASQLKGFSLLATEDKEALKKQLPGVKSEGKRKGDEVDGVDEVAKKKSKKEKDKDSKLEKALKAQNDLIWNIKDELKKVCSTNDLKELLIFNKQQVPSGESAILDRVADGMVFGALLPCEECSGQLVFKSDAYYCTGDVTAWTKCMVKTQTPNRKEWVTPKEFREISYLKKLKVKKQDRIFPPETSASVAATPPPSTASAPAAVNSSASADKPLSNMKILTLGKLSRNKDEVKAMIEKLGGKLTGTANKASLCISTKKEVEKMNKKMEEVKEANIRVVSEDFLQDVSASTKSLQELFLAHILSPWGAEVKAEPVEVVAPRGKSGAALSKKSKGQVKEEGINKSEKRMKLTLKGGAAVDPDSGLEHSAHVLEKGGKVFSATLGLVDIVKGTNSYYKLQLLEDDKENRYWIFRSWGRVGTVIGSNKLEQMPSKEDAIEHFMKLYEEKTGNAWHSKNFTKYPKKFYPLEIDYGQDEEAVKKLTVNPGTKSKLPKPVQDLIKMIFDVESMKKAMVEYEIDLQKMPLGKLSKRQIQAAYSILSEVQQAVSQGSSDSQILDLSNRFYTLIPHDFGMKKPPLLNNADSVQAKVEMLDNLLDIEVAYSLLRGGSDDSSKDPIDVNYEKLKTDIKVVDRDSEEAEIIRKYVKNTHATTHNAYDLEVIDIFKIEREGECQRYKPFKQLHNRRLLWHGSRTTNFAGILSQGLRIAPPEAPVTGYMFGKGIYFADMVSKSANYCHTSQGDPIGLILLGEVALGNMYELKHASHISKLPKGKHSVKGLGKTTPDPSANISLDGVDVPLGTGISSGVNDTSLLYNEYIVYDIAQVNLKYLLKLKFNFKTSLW
UniProt Q9ULE6: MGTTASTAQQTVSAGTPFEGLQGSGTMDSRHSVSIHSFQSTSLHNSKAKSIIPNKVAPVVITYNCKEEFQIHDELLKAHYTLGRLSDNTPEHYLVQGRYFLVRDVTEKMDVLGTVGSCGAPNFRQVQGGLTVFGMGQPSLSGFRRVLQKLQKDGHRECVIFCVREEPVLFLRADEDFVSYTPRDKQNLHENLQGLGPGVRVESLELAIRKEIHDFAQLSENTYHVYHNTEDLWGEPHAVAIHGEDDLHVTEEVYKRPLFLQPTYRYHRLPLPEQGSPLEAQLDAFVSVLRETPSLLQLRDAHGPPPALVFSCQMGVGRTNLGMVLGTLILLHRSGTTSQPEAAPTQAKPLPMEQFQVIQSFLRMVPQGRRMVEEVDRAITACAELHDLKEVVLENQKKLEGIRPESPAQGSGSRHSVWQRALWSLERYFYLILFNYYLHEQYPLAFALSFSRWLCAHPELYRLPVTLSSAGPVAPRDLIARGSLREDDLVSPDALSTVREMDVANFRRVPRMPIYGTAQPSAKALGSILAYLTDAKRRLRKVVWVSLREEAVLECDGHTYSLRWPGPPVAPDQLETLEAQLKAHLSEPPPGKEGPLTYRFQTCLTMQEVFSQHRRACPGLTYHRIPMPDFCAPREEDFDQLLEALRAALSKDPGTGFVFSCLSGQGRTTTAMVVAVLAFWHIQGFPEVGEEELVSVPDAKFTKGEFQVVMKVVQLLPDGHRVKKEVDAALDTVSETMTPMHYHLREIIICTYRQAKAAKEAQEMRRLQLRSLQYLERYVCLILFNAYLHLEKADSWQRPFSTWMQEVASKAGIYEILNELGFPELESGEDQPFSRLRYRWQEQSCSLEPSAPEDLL
UniProt P55809: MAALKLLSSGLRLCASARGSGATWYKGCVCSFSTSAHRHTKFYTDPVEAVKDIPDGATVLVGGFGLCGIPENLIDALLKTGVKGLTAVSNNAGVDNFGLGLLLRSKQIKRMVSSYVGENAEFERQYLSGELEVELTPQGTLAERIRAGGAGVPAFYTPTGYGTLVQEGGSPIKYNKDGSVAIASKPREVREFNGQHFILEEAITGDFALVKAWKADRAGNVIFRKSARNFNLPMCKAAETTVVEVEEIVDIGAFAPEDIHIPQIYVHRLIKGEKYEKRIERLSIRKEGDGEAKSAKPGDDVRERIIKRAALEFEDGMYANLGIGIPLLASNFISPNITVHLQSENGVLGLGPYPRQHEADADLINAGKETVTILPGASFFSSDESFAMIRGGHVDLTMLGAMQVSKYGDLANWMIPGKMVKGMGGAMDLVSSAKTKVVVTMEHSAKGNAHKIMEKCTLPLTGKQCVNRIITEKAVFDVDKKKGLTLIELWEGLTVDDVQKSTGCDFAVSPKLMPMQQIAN
UniProt Q6VY07, whole entry, looked up: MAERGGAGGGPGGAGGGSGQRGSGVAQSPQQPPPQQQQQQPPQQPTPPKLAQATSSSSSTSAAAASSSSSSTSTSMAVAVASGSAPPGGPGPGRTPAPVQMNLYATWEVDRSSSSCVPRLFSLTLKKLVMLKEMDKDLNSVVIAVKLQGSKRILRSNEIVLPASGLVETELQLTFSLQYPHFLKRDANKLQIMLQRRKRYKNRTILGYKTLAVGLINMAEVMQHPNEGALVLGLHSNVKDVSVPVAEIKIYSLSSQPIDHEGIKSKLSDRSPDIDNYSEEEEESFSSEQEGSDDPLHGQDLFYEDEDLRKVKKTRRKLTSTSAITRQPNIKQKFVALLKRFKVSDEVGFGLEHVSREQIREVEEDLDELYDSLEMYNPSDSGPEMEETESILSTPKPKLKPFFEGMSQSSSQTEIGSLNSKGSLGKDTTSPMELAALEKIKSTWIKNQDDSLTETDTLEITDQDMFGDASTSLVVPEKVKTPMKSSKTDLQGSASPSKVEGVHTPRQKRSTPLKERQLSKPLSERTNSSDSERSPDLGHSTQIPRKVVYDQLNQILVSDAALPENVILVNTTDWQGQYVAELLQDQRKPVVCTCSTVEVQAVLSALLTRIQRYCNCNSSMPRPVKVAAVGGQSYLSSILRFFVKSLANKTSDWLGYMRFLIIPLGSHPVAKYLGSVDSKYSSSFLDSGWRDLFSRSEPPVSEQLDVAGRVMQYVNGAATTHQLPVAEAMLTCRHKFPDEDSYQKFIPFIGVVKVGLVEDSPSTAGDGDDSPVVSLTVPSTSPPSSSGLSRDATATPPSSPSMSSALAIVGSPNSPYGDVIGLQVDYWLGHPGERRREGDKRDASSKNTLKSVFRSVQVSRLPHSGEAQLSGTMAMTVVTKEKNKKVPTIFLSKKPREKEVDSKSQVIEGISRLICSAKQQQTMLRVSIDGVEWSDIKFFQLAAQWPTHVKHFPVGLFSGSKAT
UniProt Q9H0X9: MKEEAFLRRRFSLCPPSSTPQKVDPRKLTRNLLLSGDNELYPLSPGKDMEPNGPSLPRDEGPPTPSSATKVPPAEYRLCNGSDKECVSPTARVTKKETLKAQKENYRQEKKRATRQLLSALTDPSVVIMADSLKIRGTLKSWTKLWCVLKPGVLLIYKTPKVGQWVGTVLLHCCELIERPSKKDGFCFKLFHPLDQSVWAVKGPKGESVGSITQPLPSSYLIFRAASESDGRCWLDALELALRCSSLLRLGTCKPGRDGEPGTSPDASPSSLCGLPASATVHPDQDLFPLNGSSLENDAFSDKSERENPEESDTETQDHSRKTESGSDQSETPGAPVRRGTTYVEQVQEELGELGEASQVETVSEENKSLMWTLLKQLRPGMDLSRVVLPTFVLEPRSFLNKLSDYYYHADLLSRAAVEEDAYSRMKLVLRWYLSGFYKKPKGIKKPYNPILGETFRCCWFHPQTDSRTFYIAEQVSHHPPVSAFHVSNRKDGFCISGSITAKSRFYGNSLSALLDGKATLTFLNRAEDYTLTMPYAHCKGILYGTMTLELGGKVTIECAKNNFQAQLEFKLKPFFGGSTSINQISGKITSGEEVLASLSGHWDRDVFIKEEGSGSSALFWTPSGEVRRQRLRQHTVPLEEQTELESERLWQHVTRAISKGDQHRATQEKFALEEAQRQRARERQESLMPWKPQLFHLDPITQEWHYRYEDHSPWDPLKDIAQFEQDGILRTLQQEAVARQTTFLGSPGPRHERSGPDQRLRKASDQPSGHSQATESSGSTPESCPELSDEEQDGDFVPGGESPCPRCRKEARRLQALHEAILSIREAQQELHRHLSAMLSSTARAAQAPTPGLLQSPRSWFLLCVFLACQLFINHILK
UniProt O75914, whole entry, looked up: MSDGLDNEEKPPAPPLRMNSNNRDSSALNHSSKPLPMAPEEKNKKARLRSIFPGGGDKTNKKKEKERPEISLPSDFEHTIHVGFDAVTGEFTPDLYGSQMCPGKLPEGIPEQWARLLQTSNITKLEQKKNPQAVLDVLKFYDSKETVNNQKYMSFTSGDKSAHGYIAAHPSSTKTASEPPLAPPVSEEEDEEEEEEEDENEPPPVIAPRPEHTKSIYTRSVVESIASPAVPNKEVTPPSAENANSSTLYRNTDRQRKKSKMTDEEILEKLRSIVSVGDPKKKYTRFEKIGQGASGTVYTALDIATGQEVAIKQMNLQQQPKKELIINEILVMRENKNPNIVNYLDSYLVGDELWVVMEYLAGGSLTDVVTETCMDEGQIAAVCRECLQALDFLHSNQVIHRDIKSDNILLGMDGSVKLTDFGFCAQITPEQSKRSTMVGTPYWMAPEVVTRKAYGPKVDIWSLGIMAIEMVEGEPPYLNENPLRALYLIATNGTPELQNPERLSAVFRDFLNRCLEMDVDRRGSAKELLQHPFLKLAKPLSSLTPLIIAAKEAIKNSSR
UniProt Q9UNF0: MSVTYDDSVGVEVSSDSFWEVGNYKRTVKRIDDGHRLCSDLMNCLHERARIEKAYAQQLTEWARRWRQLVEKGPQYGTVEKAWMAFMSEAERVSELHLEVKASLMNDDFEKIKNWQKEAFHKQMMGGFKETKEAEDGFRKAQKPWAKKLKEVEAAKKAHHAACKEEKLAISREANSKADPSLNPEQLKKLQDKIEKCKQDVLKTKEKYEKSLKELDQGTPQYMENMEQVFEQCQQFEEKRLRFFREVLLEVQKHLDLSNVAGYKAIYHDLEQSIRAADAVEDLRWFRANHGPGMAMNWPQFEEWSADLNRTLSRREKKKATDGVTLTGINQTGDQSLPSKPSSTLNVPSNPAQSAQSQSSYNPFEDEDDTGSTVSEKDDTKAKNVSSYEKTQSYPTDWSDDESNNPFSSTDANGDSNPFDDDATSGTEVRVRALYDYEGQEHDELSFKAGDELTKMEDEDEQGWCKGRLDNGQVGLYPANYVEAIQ
UniProt P22234: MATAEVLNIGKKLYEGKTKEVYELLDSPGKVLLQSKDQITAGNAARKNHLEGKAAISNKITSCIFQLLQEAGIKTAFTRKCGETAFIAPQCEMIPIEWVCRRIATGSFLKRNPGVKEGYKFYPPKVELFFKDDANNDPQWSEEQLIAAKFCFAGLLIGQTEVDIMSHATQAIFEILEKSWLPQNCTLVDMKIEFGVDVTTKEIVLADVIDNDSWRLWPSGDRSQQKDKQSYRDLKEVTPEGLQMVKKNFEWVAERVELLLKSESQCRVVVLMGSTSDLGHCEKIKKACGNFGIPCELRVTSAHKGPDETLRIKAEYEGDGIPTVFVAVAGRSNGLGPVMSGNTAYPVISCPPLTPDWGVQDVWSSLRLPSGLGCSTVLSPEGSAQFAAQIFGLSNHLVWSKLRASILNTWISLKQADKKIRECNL

Compound: CC1Cc2ccccc2N1C(=O)C1CCCN(C1)C(=O)CCl (mixture of isomers) [TRIM25 ligand 11 (diastereomer mixture)]
Experiment: probe-labelled cysteine peptide fold change vs DMSO (competition) (log2 fold change); higher = less target engagement (more negative = stronger competition)
Conditions: THP-1, incubation time: 4 h
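Note: competitive chemoproteomic profiling in live THP-1 cells with an iodoacetamide desthiobiotin (IA-DTB) probe, comparing probe-labelled peptide intensities in compound-treated cells against DMSO-treated controls.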

Target	probe-labelled cysteine peptide fold change (10 µM)	probe-labelled cysteine peptide fold change (50 µM)
P3H1_Q32P28_123_CLGPPAAHSLSEEMELEFR (UniProt Q32P28)	0.411	0.646
PARP1_P09874_24_CSESIPK (UniProt P09874)	-0.0701	0.0334
OVCA2_Q8WZ82_64_SDFGSCPPEEQPR (UniProt Q8WZ82)	-0.166	-0.219
PAN3_Q58A45_506_SSNFGYITSCYK (UniProt Q58A45)	-0.243	0.0441
OSBPL1A_Q9BXW6_710+711_GTITLELLEHNEAYTWTNPTCCVHNIIVGK (UniProt Q9BXW6)	0.0773	0.027
PALD1_Q9ULE6_617_ACPGLTYHR (UniProt Q9ULE6)	0.124	0.0845
OXCT1_P55809_235_NFNLPMCK (UniProt P55809)	-0.0373	-0.144
PACS1_Q6VY07_732_VMQYVNGAATTHQLPVAEAMLTCR (UniProt Q6VY07)	0.0312	-0.363
PALD1_Q9ULE6_631_IPMPDFCAPREEDFDQLLEALR (UniProt Q9ULE6)	0.052	0.057
OSBPL5_Q9H0X9_253_LGTCKPGR (UniProt Q9H0X9)	-0.106	-0.239
P3H1_Q32P28_591+600_KDDSHPVHVDNCILNAETLVCVK (UniProt Q32P28)	0.0651	-0.167
PARD3_Q8TEW0_66_LEHGDGGILDLDDILCDVADDKDR (UniProt Q8TEW0)	-0.0709	-0.256
PAK3_O75914_424_LTDFGFCAQITPEQSKR (UniProt O75914)	-0.27	-0.161
PACSIN2_Q9UNF0_38+44_LCSDLMNCLHER (UniProt Q9UNF0)	-0.108	-0.191
PAICS_P22234_100_KCGETAFIAPQCEMIPIEWVCR (UniProt P22234)	-0.254	-0.0229
PADI2_Q9Y2J8_647_FLGEVHCGTNVR (UniProt Q9Y2J8)	-0.149	-0.115
